Experimental findings from doi:10.1101/2023.08.23.554426 are described below.

By UniProt entry, the sequences of proteins in these tests, tags left out.
UniProt P62344, whole entry: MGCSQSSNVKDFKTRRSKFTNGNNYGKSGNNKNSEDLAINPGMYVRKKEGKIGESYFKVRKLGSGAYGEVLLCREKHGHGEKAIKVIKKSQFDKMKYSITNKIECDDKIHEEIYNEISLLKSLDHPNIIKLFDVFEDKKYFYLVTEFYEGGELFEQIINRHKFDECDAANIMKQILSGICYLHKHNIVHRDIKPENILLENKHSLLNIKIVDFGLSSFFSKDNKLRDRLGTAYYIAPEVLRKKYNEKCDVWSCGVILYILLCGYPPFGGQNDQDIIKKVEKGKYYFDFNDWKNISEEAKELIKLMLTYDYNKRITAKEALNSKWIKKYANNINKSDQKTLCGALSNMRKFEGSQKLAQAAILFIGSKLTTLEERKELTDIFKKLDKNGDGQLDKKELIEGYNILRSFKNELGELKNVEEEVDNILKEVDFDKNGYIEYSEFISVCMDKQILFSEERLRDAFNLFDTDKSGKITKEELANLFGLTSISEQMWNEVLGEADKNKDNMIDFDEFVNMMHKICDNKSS

In this assay the target is recombinant Plasmodium falciparum calcium-dependent protein kinase 1 (PfCDPK1) (P. falciparum) (UniProt P62344). Put plainly: ELISA. A general note: ELISA stands for enzyme-linked immunosorbent assay.

Results are given in words; binding and its absence hold for the method and conditions named. A result given as binding can be weak or reduced; the word gives no strength.

For the substance “recombinant Plasmodium falciparum Raf kinase inhibitor protein (PfRKIP), wild type (from UniProt P54189)”, the binding result was “binds”.
